Results are given in words; binding and its absence hold for the method and conditions named. Binding calls can cover weak binding; strength is not graded here. Tags and fused reporters may be left off the sequences shown. For some of these results: In cells and extracts the contact can be indirect.

The chains behind the UniProt entries cited, without tags or fusion partners. Where a name states a change or a piece, a line headed by the entry shows the natural chain unless it says otherwise.
UniProt O64862: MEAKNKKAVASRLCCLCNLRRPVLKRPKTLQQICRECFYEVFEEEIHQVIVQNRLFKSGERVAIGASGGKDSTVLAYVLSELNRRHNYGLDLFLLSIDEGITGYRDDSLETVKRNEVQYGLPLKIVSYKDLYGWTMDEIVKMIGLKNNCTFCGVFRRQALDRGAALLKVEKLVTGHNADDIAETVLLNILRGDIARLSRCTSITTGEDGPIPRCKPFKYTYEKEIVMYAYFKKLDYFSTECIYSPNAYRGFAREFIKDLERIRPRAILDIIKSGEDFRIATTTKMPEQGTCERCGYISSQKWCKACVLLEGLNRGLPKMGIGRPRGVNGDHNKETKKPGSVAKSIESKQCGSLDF

Experiment [1] concerns the target T1, CTU2-GFP (Arabidopsis thaliana) (UniProt O65628).
T1 sequence: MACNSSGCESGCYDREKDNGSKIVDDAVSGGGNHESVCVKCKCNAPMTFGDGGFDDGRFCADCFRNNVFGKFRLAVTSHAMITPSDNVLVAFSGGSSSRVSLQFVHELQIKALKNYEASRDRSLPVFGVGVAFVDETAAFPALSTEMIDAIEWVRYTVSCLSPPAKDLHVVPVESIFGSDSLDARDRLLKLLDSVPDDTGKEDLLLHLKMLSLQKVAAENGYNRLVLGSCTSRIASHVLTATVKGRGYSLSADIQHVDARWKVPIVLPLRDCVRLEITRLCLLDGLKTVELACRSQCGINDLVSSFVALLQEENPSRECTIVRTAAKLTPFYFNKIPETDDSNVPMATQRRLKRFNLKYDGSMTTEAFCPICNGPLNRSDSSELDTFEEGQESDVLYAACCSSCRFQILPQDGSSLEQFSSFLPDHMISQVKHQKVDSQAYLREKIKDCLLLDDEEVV
In words: co-IP; ROL5-FLAG and CTU2-GFP co-expressed in N. benthamiana leaves; lysate precipitated with GFP-Trap magnetic beads at 4°C for 2 hr; wash with 150–500 mM NaCl; western blot with anti-FLAG and anti-GFP. A general note: In western blotting, separated proteins are transferred to a membrane and probed.

Experiment [2] has as its target T2, cLUC-CTU2 (Arabidopsis thaliana) (UniProt O65628).
T2 sequence: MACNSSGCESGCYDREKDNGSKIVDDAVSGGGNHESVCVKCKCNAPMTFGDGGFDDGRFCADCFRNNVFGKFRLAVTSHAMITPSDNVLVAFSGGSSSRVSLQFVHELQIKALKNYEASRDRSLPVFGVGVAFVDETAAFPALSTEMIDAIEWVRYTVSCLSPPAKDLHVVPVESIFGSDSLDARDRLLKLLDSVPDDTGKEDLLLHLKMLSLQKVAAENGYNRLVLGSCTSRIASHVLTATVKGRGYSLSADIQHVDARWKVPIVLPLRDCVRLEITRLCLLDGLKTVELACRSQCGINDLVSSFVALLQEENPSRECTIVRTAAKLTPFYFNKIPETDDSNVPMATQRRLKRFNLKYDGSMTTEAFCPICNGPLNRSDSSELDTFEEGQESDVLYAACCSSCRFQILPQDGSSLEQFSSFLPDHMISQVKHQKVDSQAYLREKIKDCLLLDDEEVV
Nature of the experiment: split reporter; split luciferase, nLUC and cLUC fusions transiently expressed in N. benthamiana leaves, 48 hr, 1 mM luciferin, CCD camera.

Experiment [3] deals with T3, GST-CTU2 (Arabidopsis thaliana) (UniProt O65628).
T3 sequence: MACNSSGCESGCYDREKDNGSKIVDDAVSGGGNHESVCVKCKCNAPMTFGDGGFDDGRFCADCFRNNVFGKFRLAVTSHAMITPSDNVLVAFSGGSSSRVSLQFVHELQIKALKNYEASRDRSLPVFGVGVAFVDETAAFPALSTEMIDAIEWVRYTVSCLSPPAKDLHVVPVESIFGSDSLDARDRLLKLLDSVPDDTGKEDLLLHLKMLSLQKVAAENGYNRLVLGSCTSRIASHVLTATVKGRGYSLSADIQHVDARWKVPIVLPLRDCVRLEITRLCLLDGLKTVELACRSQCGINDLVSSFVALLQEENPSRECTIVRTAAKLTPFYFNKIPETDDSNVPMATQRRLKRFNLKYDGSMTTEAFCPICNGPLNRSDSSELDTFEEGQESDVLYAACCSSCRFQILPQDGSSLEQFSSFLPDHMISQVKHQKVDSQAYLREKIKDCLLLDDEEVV
In words: pull-down; GST or GST-CTU2 (5 μg) coupled to glutathione beads, incubated with ROL5-His (10 μg) in 0.5 mL 50 mM Tris-HCl pH 7.5, 150 mM NaCl, 1 mM EDTA, 2 mM DTT at 4°C for 2 hr; wash with binding buffer plus 2% NP-40; western blot with anti-GST or anti-His; both purified.

For experiment [4], the target named is ROL5 in pGBKT7 (yeast two-hybrid fusion) (Arabidopsis thaliana) (UniProt O64862). In words: two-hybrid; Matchmaker GAL4 system, bait in pGBKT7 and prey in pGADT7 co-transformed into yeast AH109; growth on SD/-Leu/-Trp/-His medium; empty vectors as negative controls.

As to ROL5-FLAG (from UniProt O64862), the binding result in experiment [1] is “binds”.

Turning to ROL5-nLUC (from UniProt O64862), in experiment [2], the binding entry is given as “binds”.

As for ROL5-His (from UniProt O64862), the binding entry in experiment [3] was “binds”.

B1: CTU2 in pGADT7 (yeast two-hybrid fusion) (protein, UniProt O65628 1-458)
chain: MACNSSGCESGCYDREKDNGSKIVDDAVSGGGNHESVCVKCKCNAPMTFGDGGFDDGRFCADCFRNNVFGKFRLAVTSHAMITPSDNVLVAFSGGSSSRVSLQFVHELQIKALKNYEASRDRSLPVFGVGVAFVDETAAFPALSTEMIDAIEWVRYTVSCLSPPAKDLHVVPVESIFGSDSLDARDRLLKLLDSVPDDTGKEDLLLHLKMLSLQKVAAENGYNRLVLGSCTSRIASHVLTATVKGRGYSLSADIQHVDARWKVPIVLPLRDCVRLEITRLCLLDGLKTVELACRSQCGINDLVSSFVALLQEENPSRECTIVRTAAKLTPFYFNKIPETDDSNVPMATQRRLKRFNLKYDGSMTTEAFCPICNGPLNRSDSSELDTFEEGQESDVLYAACCSSCRFQILPQDGSSLEQFSSFLPDHMISQVKHQKVDSQAYLREKIKDCLLLDDEEVV
As for B1, in experiment [4], the binding entry is reported as “binds”.

(Values after article PMC10863982 (2024).)
